Test results taken from patent publication US12172986B2, “Splicing modulator antibody-drug conjugates and methods of use” (EISAI R&D MANAGEMENT CO., LTD., priority 2018, dated 2024).
The name of at least one read-out is uncertain.

Legend:
N87 cells = experiment: Cell viability CellTiter-Glo, N87; type: cell-based, human; details: unconjugated payload of the ADC
THP1.1 = experiment: Payload cell potency and lethality CTGlo 72 h, THP1.1; type: cell-based
PC3 cells = experiment: Cell viability, EPHA2-expressing PC3; type: cell-based; details: corresponding payload alone

Row | Compound | Payload Rmin (%) (N87 cells) | CTGlo-AT S Mean MinResponse % 72 h THP1.1 (THP1.1) | Payload Rmin (%) (PC3 cells)
1 | C/C(=C\c1cc(F)cc(N2CCN(C(=O)Cn3cccn3)CC2)c1)[C@H]1OC(=O)C[C@H](O)CC[C@H](C)[C@@H](OC(=O)N2CCNCC2)/C=C/[C@@H]1C [D16] | −68.045% | −99.681% | –
2 | C/C(=C\c1cc(F)cc(N2CCOCC2)c1)[C@H]1OC(=O)C[C@H](O)CC[C@H](C)[C@@H](OC(=O)N2CCN(C)CC2)/C=C/[C@@H]1C [D17] | – | −99.033% | –
3 | CC[C@H](O)[C@@H](C)[C@H]1O[C@@H]1C[C@@](C)(O)/C=C/C=C(\C)[C@H]1OC(=O)C[C@H](O)CC[C@@](C)(O)[C@@H](OC(=O)N2CCN(C3CCCCCC3)CC2)/C=C/[C@@H]1C [D11, E7107] | – | −100.481% | –
4 | CC(=O)N1CCC(n2nnc3c(F)cc(/C=C(\C)[C@H]4OC(=O)C[C@H](O)CC[C@H](C)[C@@H](OC(=O)N5CCNCC5)/C=C/[C@@H]4C)cc32)CC1 [D14] | – | −99.209% | −79.835%
5 | C/C(=C\c1cc(F)cc(N2CCN(CC(=O)O)CC2)c1)[C@H]1OC(=O)C[C@H](O)CC[C@H](C)[C@@H](OC(=O)N2CCNCC2)/C=C/[C@@H]1C [D33, 2-(4-(3-fluoro-5-((E)-2-((2S,3S,6R,7S,10R,E)-10-hydroxy-3,7-dimethyl-12-oxo-6-((piperazine-1-carbonyl)oxy)oxacyclododec-4-en-2-yl)prop-1-en-1-yl)phenyl)piperazin-1-yl)acetic acid] | – | 53.128% | –
